Laboratory results taken from PMC9107765.
These are yes or no findings as the source states them, for the method shown. Binding seen in cells or lysates may run through a third protein. Some binding calls cover weakened binding; strength is not graded here.

The chains behind the UniProt entries cited, without tags or fusion partners.
UniProt O43707: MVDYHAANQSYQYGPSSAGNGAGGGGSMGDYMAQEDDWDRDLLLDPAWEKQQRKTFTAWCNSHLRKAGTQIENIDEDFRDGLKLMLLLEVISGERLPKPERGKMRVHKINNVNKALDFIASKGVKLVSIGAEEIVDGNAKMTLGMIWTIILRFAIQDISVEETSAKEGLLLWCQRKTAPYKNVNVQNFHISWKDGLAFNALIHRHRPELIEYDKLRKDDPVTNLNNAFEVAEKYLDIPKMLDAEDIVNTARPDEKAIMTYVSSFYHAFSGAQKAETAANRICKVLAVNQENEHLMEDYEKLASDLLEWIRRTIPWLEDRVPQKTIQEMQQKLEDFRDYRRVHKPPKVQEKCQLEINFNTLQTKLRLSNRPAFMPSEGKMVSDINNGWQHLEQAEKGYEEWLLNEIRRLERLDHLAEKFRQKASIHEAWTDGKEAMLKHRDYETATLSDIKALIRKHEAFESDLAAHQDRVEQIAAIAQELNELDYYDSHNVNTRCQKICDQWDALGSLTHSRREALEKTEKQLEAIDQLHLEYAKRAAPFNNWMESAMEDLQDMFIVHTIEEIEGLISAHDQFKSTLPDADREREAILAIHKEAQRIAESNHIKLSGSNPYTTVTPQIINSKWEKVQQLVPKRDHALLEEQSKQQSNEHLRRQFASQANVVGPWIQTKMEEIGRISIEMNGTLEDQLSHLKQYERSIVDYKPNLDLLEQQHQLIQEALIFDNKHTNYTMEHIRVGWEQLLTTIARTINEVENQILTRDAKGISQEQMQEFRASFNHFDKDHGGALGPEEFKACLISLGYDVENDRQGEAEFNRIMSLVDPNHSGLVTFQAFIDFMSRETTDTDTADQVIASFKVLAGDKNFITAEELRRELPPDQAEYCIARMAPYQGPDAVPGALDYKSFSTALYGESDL
UniProt Q9H0F5: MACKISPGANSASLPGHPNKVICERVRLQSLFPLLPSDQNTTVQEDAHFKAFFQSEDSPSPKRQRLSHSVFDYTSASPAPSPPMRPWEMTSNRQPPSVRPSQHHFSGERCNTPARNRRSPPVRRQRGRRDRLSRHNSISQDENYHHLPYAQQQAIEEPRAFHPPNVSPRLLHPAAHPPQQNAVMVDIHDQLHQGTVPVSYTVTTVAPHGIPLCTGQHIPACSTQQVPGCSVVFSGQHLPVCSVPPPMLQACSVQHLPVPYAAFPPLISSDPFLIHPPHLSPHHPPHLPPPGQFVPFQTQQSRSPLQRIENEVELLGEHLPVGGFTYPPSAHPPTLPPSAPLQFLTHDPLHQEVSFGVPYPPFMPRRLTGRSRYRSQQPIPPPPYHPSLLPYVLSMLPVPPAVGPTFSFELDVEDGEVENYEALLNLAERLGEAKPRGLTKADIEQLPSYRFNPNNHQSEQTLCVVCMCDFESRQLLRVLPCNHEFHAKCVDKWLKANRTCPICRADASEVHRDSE

How the values were obtained:
[1] = biological target: ACTN4 (Actinin Alpha 4) (human (endogenous in SUNE-1)) (UniProt O43707); assay: co-IP; lysates of SUNE-1-NC and SUNE-1-RNF38 cells incubated with antibody to RNF38, ACTN4 or IgG at 4 °C overnight; protein A/G magnetic beads; washed with RIPA buffer; immunoblot for RNF38, ACTN4 and GAPDH; both orientations
[2] = biological target: RNF38 (ring finger protein 38) (UniProt Q9H0F5); assay: as above

binding [1] | binding [2] | Substance
binds |  | RNF38 (ring finger protein 38) (from UniProt Q9H0F5 1-515) (enzyme)
 | binds | ACTN4 (Actinin Alpha 4) (from UniProt O43707 1-911)
